Source: publication doi:10.1101/424218
These are yes or no findings as the source states them, for the method shown. Binding seen in cells or lysates may run through a third protein. Some results given as binding are weak or reduced against the parent protein; the word gives no strength. Where a sequence is shown, tags or fusion partners need not be part of it.

Chains of the proteins cited; added tags and fusions are not shown.
UniProt P22216, whole entry: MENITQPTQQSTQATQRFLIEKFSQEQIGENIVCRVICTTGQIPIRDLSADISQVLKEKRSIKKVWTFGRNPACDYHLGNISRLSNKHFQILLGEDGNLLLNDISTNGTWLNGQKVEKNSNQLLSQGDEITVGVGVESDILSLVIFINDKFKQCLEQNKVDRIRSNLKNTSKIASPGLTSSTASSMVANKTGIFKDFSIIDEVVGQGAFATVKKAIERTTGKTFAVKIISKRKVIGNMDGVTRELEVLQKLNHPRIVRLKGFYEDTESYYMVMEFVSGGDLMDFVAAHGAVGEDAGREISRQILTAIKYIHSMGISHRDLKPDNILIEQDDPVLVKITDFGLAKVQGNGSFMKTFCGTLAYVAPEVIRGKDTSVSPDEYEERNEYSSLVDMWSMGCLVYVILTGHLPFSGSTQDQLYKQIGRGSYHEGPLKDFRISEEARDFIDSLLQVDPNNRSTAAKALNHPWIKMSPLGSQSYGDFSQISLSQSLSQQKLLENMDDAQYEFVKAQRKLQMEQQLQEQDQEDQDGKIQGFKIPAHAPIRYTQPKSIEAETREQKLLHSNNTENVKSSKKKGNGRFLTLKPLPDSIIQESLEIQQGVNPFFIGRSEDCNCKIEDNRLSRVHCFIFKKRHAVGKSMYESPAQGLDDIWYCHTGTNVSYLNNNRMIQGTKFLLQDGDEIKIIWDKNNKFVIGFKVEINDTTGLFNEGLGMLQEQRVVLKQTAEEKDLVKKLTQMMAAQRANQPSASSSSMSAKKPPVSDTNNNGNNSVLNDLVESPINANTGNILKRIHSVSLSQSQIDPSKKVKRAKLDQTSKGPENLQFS

Biological target: Rad53 (S. cerevisiae (endogenous in W303-derived strains)) (UniProt P22216)
Experiment: co-IP

binding: binds
B1: Rad9-HA (protein, UniProt P14737 1-1309)
chain: MSGQLVQWKSSPDRVTQSAIKEALHSPLADGDMNEMNVPVDPLENKVNSTNIIEGSPKANPNPVKFMNTSEIFQKSLGLLDESPRHDDELNIEVGDNDRPNANILHNERTPDLDRIANFFKSNRTPGKENLLTKYQSSDLEDTPLMLRKKMTFQTPTDPLEQKTFKKLKSDTGFCYYGEQNDGEENASLEVTEADATFVQMAERSADNYDCALEGIVTPKRYKDELSKSGGMQDERVQKTQIMISAESPNSISSYDKNKITGNGRTTRNVNKVFNNNEDNIGAIEEKNPVKKKSENYSSDDLRERNNQIIQSNESEEINELEKNLNVSGRENDVNNLDIDINSAVSGTPSRNNAEEEMYSSESVNNREPSKKWIFRYSKDKTENNSNRSTQIVNNPRTQEMPLDSISIDTQPLSKSFNTETNNELETQIIVSSLSQGISAQKGPVFHSTGQTEEIKTQIINSPEQNALNATFETPVTLSRINFEPILEVPETSSPSKNTMSKPSNSSPIPKEKDTFNIHEREVETNNVFSNDIQNSSNAATRDDIIIAGSSDFNEQKEITDRIYLQLSGKQISDSGSDETERMSPNELDTKKESTIMSEVELTQELPEVEEQQDLQTSPKKLVVEEETLMEIKKSKGNSLQLHDDNKECNSDKQDGTESLDVALIEHESKGQSSELQKNLMQLFPSESQEIIQNRRTIKRRQKDTIEIGEEEENRSTKTSPTKHLKRNSDLDAASIKREPSCSITIQTGETGSGKDSKEQSYVFPEGIRTADNSFLSKDDIIFGNAVWCQYTWNYKFYPGILLEVDTNQDGCWIYFETGRSLTKDEDIYYLDIRIGDAVTFDGNEYVVVGLECRSHDLNIIRCIRGYDTVHLKKKNASGLLGKRTLIKALSSISLDLSEWAKRAKIILEDNEKNKGDAYRYLRHPIRGRKSMTNVLSPKKHTDDEKDINTHTEVYNNEIESSSEKKEIVKKDSRDALAEHAGAPSLLFSSGEIRTGNVFDKCIFVLTSLFENREELRQTIESQGGTVIESGFSTLFNFTHPLAKSLVNKGNTDNIRELALKLAWKPHSLFADCRFACLITKRHLRSLKYLETLALGWPTLHWKFISACIEKKRIVPHLIYQYLLPSGESFRLSLDSPSKGGIIKSNNIFSFYTQFLRGSNLRDQICGVKKMLNDYIVIVWGRSELDSFVKFAFACLSAGRMLTIDLPNIDVDDTEPLLNALDSLVPRIGSELSNRKLKFLIYANENNGKSQMKLLERLRSQISLKFKKFNYIFHTESKEWLIQTIINEDTGFHDDITDNDIYNTISEVR
